Reference: US10780090B2, “Heteroaryl compounds useful as inhibitors of SUMO activating enzyme” (Millennium Pharmaceuticals, Inc., priority 2014, dated 2020)
pIC50: −log10 of the molar value. The match of structure and compound is tentative.

Sequences of proteins named here, by UniProt entry; tags and fusion partners are left off.
UniProt Q9UBT2, whole entry: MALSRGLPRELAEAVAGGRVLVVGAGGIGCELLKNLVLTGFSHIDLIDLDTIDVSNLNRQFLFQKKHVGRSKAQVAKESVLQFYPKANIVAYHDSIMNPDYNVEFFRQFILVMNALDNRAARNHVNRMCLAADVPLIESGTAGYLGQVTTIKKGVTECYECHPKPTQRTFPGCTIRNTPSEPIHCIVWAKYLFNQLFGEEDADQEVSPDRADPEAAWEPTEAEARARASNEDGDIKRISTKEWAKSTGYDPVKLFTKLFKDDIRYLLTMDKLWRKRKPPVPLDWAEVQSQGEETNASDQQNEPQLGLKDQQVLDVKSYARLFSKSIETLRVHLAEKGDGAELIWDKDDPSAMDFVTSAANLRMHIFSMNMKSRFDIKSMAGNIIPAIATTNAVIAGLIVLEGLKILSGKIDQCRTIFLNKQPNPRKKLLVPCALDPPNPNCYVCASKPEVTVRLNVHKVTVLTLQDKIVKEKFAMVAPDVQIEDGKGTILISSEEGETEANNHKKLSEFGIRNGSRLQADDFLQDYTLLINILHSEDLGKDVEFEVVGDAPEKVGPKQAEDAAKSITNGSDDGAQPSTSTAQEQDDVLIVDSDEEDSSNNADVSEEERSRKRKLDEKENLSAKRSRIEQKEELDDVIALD
UniProt Q9UBE0, whole entry partner: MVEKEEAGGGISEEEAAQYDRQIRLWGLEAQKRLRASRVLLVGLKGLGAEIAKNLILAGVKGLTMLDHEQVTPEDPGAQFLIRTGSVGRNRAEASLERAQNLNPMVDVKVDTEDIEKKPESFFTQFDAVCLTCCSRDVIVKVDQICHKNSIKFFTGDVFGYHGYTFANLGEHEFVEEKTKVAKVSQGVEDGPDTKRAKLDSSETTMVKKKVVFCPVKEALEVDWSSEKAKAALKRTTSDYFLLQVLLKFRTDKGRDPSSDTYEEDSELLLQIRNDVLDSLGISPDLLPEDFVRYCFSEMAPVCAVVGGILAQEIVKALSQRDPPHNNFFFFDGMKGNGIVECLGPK

Target: recombinant human SAE enzyme (Homo sapiens (Human), UniProt Q9UBT2)
Assay: SAE HTRF enzyme assay
Assay type: biochemical
Conditions: for pIC50: class symbols A/B/C; for IC50: SAE inhibition, class symbols, legend in nM
[1] = SAE inhibition at compound concentration 0.111 μM

NS(=O)(=O)OC[C@H]1C[C@@H](Nc2ncncc2C(=O)c2cc(C(O)c3cccc(Cl)n3)c(Cl)s2)C[C@@H]1O (single isomer, unassigned)
Percent Inhibition (Concentration 0.111 μM): 100% | pIC50: > 8.00

NC(c1cccc(Br)n1)c1cc(C(=O)c2cncnc2N[C@@H]2C[C@H](COS(N)(=O)=O)[C@@H](O)[C@H]2O)sc1Cl (single isomer, unassigned)
Percent Inhibition (Concentration 0.111 μM): 99% | pIC50: > 8.00

Cc1sc(C(=O)c2cncnc2N[C@@H]2C[C@H](COS(N)(=O)=O)[C@@H](O)C2)nc1C(O)c1cccc(Cl)c1 (single isomer, unassigned)
Percent Inhibition [1]: 96% | IC50: < 10 nM

COCc1sc(C(=O)c2cncnc2N[C@@H]2C[C@H](COS(N)(=O)=O)[C@@H](O)C2)cc1C(O)c1cccc(Cl)c1 (single isomer, unassigned)
Percent Inhibition (Concentration 0.111 μM): 98% | pIC50: > 8.00

Cc1nc2c(s1)C(c1cc(C(=O)c3cncnc3N[C@@H]3C[C@H](COS(N)(=O)=O)[C@@H](O)C3)sc1C)OCC2 (single isomer, unassigned)
Percent Inhibition [1]: 96% | IC50: < 10 nM

NS(=O)(=O)OC[C@H]1C[C@@H](Nc2ncncc2C(=O)c2cc(C3(c4cccc(Cl)c4)CCCN3)cs2)[C@H](O)[C@@H]1O (stereo partly shown)
Percent Inhibition (Concentration 0.111 μM): 98% | pIC50: > 8.00

Cc1sc(C(=O)c2cncnc2N[C@@H]2C[C@H](COS(N)(=O)=O)[C@@H](O)[C@H]2O)cc1C1OCCc2ccccc21 (single isomer, unassigned)
Percent Inhibition (Concentration 0.111 μM): 101% | pIC50: > 8.00

CN1Cc2ccccc2C1c1cc(C(=O)c2cncnc2NC2CC(O)C(COS(N)(=O)=O)C2)sc1Cl (stereo not shown)
Percent Inhibition [1]: 97%

NS(=O)(=O)OC[C@H]1C[C@@H](Nc2ncncc2C(=O)c2cc(C3OCCc4ccc(Cl)cc43)c(CO)s2)C[C@@H]1O (stereo partly shown)
Percent Inhibition [1]: 100% | IC50: < 10 nM

NS(=O)(=O)OC[C@H]1C[C@@H](Nc2ncncc2C(=O)c2cc(C3CCCc4ccc(Cl)cc43)cs2)C[C@@H]1O (single isomer, unassigned)
Percent Inhibition [1]: 38% | IC50: 100 to 1000 nM
